From article PMC10395914
These are yes or no findings as the source states them, for the method shown. In cells and extracts the contact can be indirect. Some binding calls cover weakened binding; strength is not graded here. One block for each substance: values may come before it.

Chains of the proteins cited; added tags and fusions are not shown.
UniProt P31152: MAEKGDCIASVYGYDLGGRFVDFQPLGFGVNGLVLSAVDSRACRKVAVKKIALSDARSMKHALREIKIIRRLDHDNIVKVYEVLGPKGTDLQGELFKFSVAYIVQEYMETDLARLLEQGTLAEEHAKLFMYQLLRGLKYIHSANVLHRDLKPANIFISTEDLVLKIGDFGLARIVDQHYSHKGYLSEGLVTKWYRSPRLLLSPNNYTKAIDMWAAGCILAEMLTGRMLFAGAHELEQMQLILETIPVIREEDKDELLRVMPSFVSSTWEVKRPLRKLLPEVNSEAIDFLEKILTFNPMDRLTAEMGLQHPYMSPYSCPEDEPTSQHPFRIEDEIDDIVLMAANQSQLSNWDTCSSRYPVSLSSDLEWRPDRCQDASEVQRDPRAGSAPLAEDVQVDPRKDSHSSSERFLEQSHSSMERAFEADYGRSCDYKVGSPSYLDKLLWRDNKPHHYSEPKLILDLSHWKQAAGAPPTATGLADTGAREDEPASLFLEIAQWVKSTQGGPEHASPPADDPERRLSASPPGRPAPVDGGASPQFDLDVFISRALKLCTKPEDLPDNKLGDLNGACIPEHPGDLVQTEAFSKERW
UniProt P06730: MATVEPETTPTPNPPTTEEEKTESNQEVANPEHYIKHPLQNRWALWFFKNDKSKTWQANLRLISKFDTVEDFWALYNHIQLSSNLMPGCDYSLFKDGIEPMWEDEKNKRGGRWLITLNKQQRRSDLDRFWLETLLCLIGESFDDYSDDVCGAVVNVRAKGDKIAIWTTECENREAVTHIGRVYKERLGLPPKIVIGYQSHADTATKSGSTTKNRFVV

Key:
Flag/His-tagged MAPK4 = Flag/His-tagged MAPK4 (UniProt P31152); test: co-IP; HEK293T cells co-transfected with the two tagged proteins; lysates prepared 48 h later; immunoprecipitation with anti-FLAG M2 affinity gel, then western blots
[1] = molecular target: Flag-tagged eIF4E (human) (UniProt P06730); test: as above
GST-MAPK4 fusion protein = GST-MAPK4 fusion protein (UniProt P31152); test: pull-down; purified GST-MAPK4 as bait with MDA-MB-231, HS578T and HCC1937 cell lysates; GST-FH (GST-HF) protein as control; western blot for endogenous eIF4E; only the target purified

binding (Flag/His-tagged MAPK4): binds
Substance: HA-tagged eIF4E (from UniProt P06730 1-217)

binding [1]: binds
Substance: HA-tagged MAPK4 (mitogen-activated protein kinase 4) (from UniProt P31152 1-587) (enzyme)

binding (GST-MAPK4 fusion protein): binds
Substance: endogenous eIF4E (from UniProt P06730 1-217)
